From US20050153894A1 (Cyclacel Limited, priority 1999, published 2005)
Square brackets hold non-standard residues; d marks the D form. Phe(4-Cl) = N[C@@H](Cc1ccc(Cl)cc1)C(=O)O; Phe(2-Cl) = N[C@@H](Cc1ccccc1Cl)C(=O)O; Phe(3-F) = N[C@@H](Cc1cccc(F)c1)C(=O)O; Phe(4-F) = N[C@@H](Cc1ccc(F)cc1)C(=O)O; hArg = N=C(N)NCCCC[C@H](N)C(=O)O; 2Thi = N[C@@H](Cc1cccs1)C(=O)O; Cha = N[C@@H](CC1CCCCC1)C(=O)O; hSer = N[C@@H](CCO)C(=O)O; Nle = CCCC[C@H](N)C(=O)O; Orn = NCCC[C@H](N)C(=O)O; Nva = CCC[C@H](N)C(=O)O; Abu = CC[C@H](N)C(=O)O; βAla = NCCC(=O)O; Sar = CNCC(=O)O

Test: general procedure: Fmoc solid-phase peptide synthesis; Rink amide linker; 5-[4-(4-tolyl(chloro)methyl)phenoxy]pentanoyl aminomethylated polystyrene for some; PyBOP-, HBTU- or TBTU with HOBt and Pr2iNEt
Details: whole synthesis, 214 nm
With H-Dab-Ala-Lys-Arg-Arg-Leu-Ile Phe-NH2 the “purity (crude or final not stated)” value was 100%.
In the case of H-HAKRR[Nva]IF-NH2, the “purity (crude or final not stated)” value is reported as 100%.
In the case of H-His-Bug-Lys-Arg-Arg-Leu-Ile Phe-NH2, the “purity (crude or final not stated)” value is reported as 100%.
For H-His-Ala-Lys-Cit-Arg-Leu-Ile Phe-NH2, the “purity (crude or final not stated)” value was 94%.
For H-HAKRRLIF-NH2, the “purity (crude or final not stated)” value was 99%.
In the case of H-Ser-Ala-Abu-Arg-Asn-Leu-Phe-Gly-NH2, the “purity (crude or final not stated)” value is reported as 99%.
In the case of H-ASn-Leu-Phe-Gly-NH2, the “purity (crude or final not stated)” value is reported as 99%.
With H-HGKRRLIF-NH2 the “purity (crude or final not stated)” value was 98%.
For H-Ala-Abu-Arg-Asn-Leu-Phe-Gly-NH2, the “purity (crude or final not stated)” value was 99%.
With H-His-Ser-Lys-Arg-Arg-Leu-Ile L-Psa OH the “final HPLC purity” value was 99%.
For “H-Asp Phe Tyr His Ala Lys Arg Arg Leu Ile Phe NH2”, the “purity (crude or final not stated)” value was over 95%.
For H-Arg-Asn-Leu-Phe-Gly-NH2, the “purity (crude or final not stated)” value was 99%.
With H-HAKRRL[Nle]F-NH2 the “purity (crude or final not stated)” value was 100%.
For H-His-Ala-Lys-arg-Arg-Leu-Ile Phe-NH2, the “purity (crude or final not stated)” value was 99%.
With H-HAKRRLFF-NH2 the “purity (crude or final not stated)” value was 100%.
In the case of “H-Ser-Asn-Pro-Pro-Lys-Pro-Leu-Lys-Lys-Leu-Arg-Phe-Asp-Ile-Glu-NH2”, the “purity (crude or final not stated)” value is reported as over 95%.
For H-HAKRRLI[Phe(3-F)]-NH2, the “purity (crude or final not stated)” value was 100%.
For H-HAKRRLIY-NH2, the “purity (crude or final not stated)” value was 100%.
With H-His-Ala-Lys-Arg-Arg-Leu-Ile-1Nap-NH2 the “purity (crude or final not stated)” value was 100%.
For H-HAKRRLI[Phe(4-F)]-NH2, the “purity (crude or final not stated)” value was 100%.
With H-His-Ala-Lys-Arg-Arg-Leu-Ile L-Psa OH the “final HPLC purity” value was 99%.
For H-H[Abu]KRRLIF-NH2, the “purity (crude or final not stated)” value was 100%.
In the case of H-His-Ser-Lys-Arg-Arg-Leu-Ile Dhp OH, the “final HPLC purity” value is reported as 99%.
For H-Ala-Lys-Arg-Arg-Leu Ile-pFPhe-NH2, the “purity (crude or final not stated)” value was 99%.
With H-HAKRRL[Cha]F-NH2 the “purity (crude or final not stated)” value was 100%.

Same assay, conditions: whole synthesis, RP-HPLC, Vydac 218TP54, 214 nm
For H-AAKRRL[Phe(4-F)]G-NH2, the “purity (crude or final not stated)” value was 95%.
For H-GAKRRLI[Phe(4-F)]-NH2, the “purity (crude or final not stated)” value was 94%.
With H-Ala-Ala-Lys-Arg-Arg-Phg-Ile-pfPhe-NH2 the “purity (crude or final not stated)” value was 90%.
In the case of H-AAKR[Orn]LI[Phe(4-F)]-NH2, the “purity (crude or final not stated)” value is reported as 95%.
With H-AAKRTLI[Phe(4-F)]-NH2 the “purity (crude or final not stated)” value was 92%.
With H-AAKRRL[Phe(2-Cl)]G-NH2 the “purity (crude or final not stated)” value was 95%.
In the case of H-AAKRRL[Phe(4-Cl)]G-NH2, the “purity (crude or final not stated)” value is reported as 95%.
With H-Ala-Ala-Lys-Arg-Arg-Hof-Ile-pFPhe-NH2 the “purity (crude or final not stated)” value was 88%.
In the case of H-AAK[hSer]RLFG-NH2, the “purity (crude or final not stated)” value is reported as 90%.
With H-AAKRRLFD-NH2 the “purity (crude or final not stated)” value was 95%.
In the case of H-AAKR[hSer]LFG-NH2, the “purity (crude or final not stated)” value is reported as 88%.
In the case of H-AAK[hArg]RLFG-NH2, the “purity (crude or final not stated)” value is reported as 93%.
For H-AAKRRL[Sar][Phe(4-F)]-NH2, the “purity (crude or final not stated)” value was 87%.
With H-AAKRKLI[Phe(4-F)]-NH2 the “purity (crude or final not stated)” value was 90%.
With H-AAKRQLFG-NH2 the “purity (crude or final not stated)” value was 86%.
For H-AAK[hSer]RLI[Phe(4-F)]-NH2, the “purity (crude or final not stated)” value was 87%.
With H-AAKRRMI[Phe(4-F)]-NH2 the “purity (crude or final not stated)” value was 80%.
For H-AAKRRLFE-NH2, the “purity (crude or final not stated)” value was 93%.
In the case of H-Ala-Ala-Lys-Arg-Arg-Leu-Pya-Phe-NH2, the “purity (crude or final not stated)” value is reported as 86%.
With H-AAKRRLFS-NH2 the “purity (crude or final not stated)” value was 95%.
For H-AAKR[hSer]LI[Phe(4-F)]-NH2, the “purity (crude or final not stated)” value was 90%.
For H-AAKRRLI[2Thi]-NH2, the “purity (crude or final not stated)” value was 87%.
For H-AAKRRLFN-NH2, the “purity (crude or final not stated)” value was 95%.
For H-AAKRRL[βAla][Phe(4-F)]-NH2, the “purity (crude or final not stated)” value was 94%.
In the case of H-Ala-Ala-Lys-Arg-Arg-Leu-Pya-Gly-NH2, the “purity (crude or final not stated)” value is reported as 90%.
With H-AAKRRLI[Phe(4-Cl)]-NH2 the “purity (crude or final not stated)” value was 88%.
